Each structure is given as a SMILES string. The list does not hold the whole screen: it gathers tests that were run many times, whatever their T/C, doses with no T/C, and many T/C values between a quarter and a half above the control. Other doses and runs of a compound stand elsewhere. T/C gives the treated animals as a percentage of the vehicle group. Some doses have a count of surviving animals in place of a T/C: the source files T/C as zero there, which appears to mark a toxic dose or a test without result, not a measured value. Some survivor counts are full or nearly so, which does not show that the dose was tolerated: survival well below the control is almost never listed, so the zero probably covers shortened survival too. Counts of survivors are from the toxicity check (mostly the fifth day) where no day follows; animals may have died later. Schedule codes are those of the source, taken here to give the interval after Q, in days (D) or hours (H), and the number of doses after X. Some entries hold several experiments; their values stand side by side, smallest first. Where survival is the endpoint, the PubChem record calls one and a half times the control and up active, and a quarter to a half above the control has no call in these data; cut-offs in other NCI protocols can differ. Some T/C values are followed by the survivors on the day toxicity was checked, most often the fifth; where none is given, no animal had died by that day.

For this test, the system named is P388 leukemia ip, CD2F1 mice, survival T/C. In words: NCI In Vivo Anticancer Drug Screen. Data for tumor model P388 Leukemia (intraperitoneal) in CD2F1 (CDF1) mice. Particulars: T/C endpoint: median survival time, higher T/C = longer survival.
Setting [1] is: dose: 25.0 mg/kg/injection, schedule: Q01DX005 (ip), vehicle: saline with Tween-80.
Where [2] appears, read: dose: 50.0 mg/kg/injection, schedule: Q01DX005 (ip), vehicle: saline with Tween-80.
Where [3] appears, read: dose: 100.0 mg/kg/injection, schedule: Q01DX005 (ip), vehicle: saline with Tween-80.
[4] abbreviates: dose: 200.0 mg/kg/injection, schedule: Q01DX005 (ip), vehicle: saline with Tween-80.
Where [5] appears, read: dose: 400.0 mg/kg/injection, schedule: Q04DX003 (ip), vehicle: saline with Tween-80.
Where [6] appears, read: dose: 240.0 mg/kg/injection, schedule: Q01DX005 (ip), vehicle: saline.
Where [7] appears, read: dose: 50.0 mg/kg/injection, schedule: Q01DX009 (ip), vehicle: saline.
Setting [8] is: dose: 100.0 mg/kg/injection, schedule: Q01DX009 (ip), vehicle: saline.
[9] abbreviates: dose: 200.0 mg/kg/injection, schedule: Q01DX009 (ip), vehicle: other.
The mark [10] stands for this setting: dose: 240.0 mg/kg/injection, schedule: Q01DX005 (ip), vehicle: Klucel (hydroxypropylcellulose) (HPC).

Consider `CC(=O)Nc1nnc(-c2coc3ccc(C)cc3c2=O)s1`, for which the survivor count was 6 of 6 under setting [1], 6 of 6 under setting [2], 6 of 6 under setting [3] and 6 of 6 under setting [4].
For the compound `COc1ccc2c(c1)C(Cc1ccc(Oc3cc(CC4c5cc(OC)ccc5CC[N+]4(C)C)ccc3OC)cc1)[N+](C)(C)CC2` (stereo not given), the survivor count is, setting by setting: (dose: 6.25 mg/kg/injection, schedule: Q04DX003 (ip), vehicle: saline with Tween-80) 0 of 6; (dose: 6.25 mg/kg/injection, schedule: Q04DX003 (ip), vehicle: water) 3 of 6; (dose: 12.5 mg/kg/injection, schedule: Q04DX003 (ip), vehicle: saline with Tween-80) 0 of 6; (dose: 25.0 mg/kg/injection, schedule: Q04DX003 (ip), vehicle: saline with Tween-80) 0 of 6; (dose: 50.0 mg/kg/injection, schedule: Q04DX003 (ip), vehicle: saline with Tween-80) 0 of 6; (dose: 100.0 mg/kg/injection, schedule: Q04DX003 (ip), vehicle: saline with Tween-80) 0 of 6. Moreover, the survivor count is 0 of 6 (dose: 200.0 mg/kg/injection, schedule: Q04DX003 (ip), vehicle: saline with Tween-80) and 0 of 6 under setting [5].
Regarding `COc1ccc(/C=C/C(=O)C(C)(CN(C)C)CN(C)C)cc1`, the T/C (dose: 60.0 mg/kg/injection, schedule: Q01DX005 (ip), vehicle: saline) is 128 and 130 % of control; the T/C (dose: 120.0 mg/kg/injection, schedule: Q01DX005 (ip), vehicle: saline) was 128 % of control. Under setting [6], the survivor count was 0 of 6 and 3 of 6.
Consider `CSc1cccc([N+](=O)[O-])c1`, for which, under setting [7], the survivor count is reported as 6 of 6.
Consider `Cc1c2cc[n+](C)c(C)c2cc2c1[nH]c1ccc(O)cc12`, for which the T/C is 130 % of control (dose: 1.56 mg/kg/injection, schedule: Q04DX002 (ip), vehicle: water); 135 % of control (dose: 3.12 mg/kg/injection, schedule: Q04DX002 (ip), vehicle: water); 140 % of control (dose: 5.0 mg/kg/injection, schedule: Q04DX002 (ip), vehicle: water); 141 % of control (dose: 6.25 mg/kg/injection, schedule: Q04DX002 (ip), vehicle: water); 149 % of control (dose: 12.5 mg/kg/injection, schedule: Q04DX002 (ip), vehicle: water); 141 % of control (dose: 25.0 mg/kg/injection, schedule: Q04DX002 (ip), vehicle: water).
As to `COc1cc2c(cc1[N+](=O)[O-])C(=O)C(Br)(Br)CCC2`, under “dose: 200.0 mg/kg/injection, schedule: Q01DX009 (ip), vehicle: Klucel (hydroxypropylcellulose) (HPC)”, the survivor count is recorded as 2 of 6.
Regarding `COC(=O)c1nc(=S)[nH]c(C(=O)OC)c1C(=O)c1cccnc1`, the survivor count under setting [6] was 2 of 6.
On to `O=C1C(c2ccccc2)=C(c2ccccc2)C2(c3ccccc3)Oc3c(Cl)c(Cl)c(Cl)c(Cl)c3OC12c1ccccc1` (stereo not given), for which the survivor count (dose: 200.0 mg/kg/injection, schedule: Q01DX009 (ip), vehicle: saline with Tween-80) is 6 of 6.
As to `CCCCCCCCCCCCCCCCCCOC(=O)Cc1ccc(N(CCCl)CCCl)cc1`, for the setting “dose: 22.5 mg/kg/injection, schedule: Q01DX009 (ip), vehicle: saline with Tween-80”, the T/C is 127 % of control.
As for `CC/C(=N\NC(N)=NC)c1ccc(Cl)cc1`, the survivor count reads like this: (dose: 50.0 mg/kg/injection, schedule: Q04DX002 (ip), vehicle: saline) 1 of 6; (dose: 100.0 mg/kg/injection, schedule: Q04DX002 (ip), vehicle: saline) 0 of 6.
Turning to `C/C(=N\NC(=S)N1CCN(C2CCCCC2)CC1)c1ccccn1`, the survivor count (dose: 12.5 mg/kg/injection, schedule: Q01DX005 (ip), vehicle: saline with Tween-80) was 3 of 6; the survivor count under setting [1] is listed as 1 of 6; the survivor count under setting [2] was 1 of 6; the survivor count under setting [3] is on record as 0 of 6; the survivor count under setting [4] is recorded as 0 of 6.
Consider `CSc1nc(N)nc2nc[nH]c12`, for which the survivor count under setting [5] is listed as 0 of 6.
In the case of `CCOC(=O)c1cnc(NCCCCCCCCNc2ncc(C(=O)OCC)c(=O)[nH]2)[nH]c1=O`, the survivor count was 6 of 6 under setting [7] and 6 of 6 under setting [8].
On to `C=C(C#N)C1OC2OC(C)(C)OC2C1OC` (stereo not given), for which, under setting [4], the survivor count is 0 of 6.
Consider `CCOC(=O)N(NC(=O)c1ccc(N(CCCl)CCCl)cc1)C(C)=O`, for which the T/C is, setting by setting: (dose: 100.0 mg/kg/injection, schedule: Q01DX009 (ip), vehicle: other) 126 % of control; under setting [9], 129 % of control [5 of 6 alive]. Further, the survivor count is recorded as 0 of 6 under setting [9]; 0 of 6 (dose: 300.0 mg/kg/injection, schedule: Q01DX009 (ip), vehicle: other); 0 of 6 (dose: 400.0 mg/kg/injection, schedule: Q01DX009 (ip), vehicle: other).
`COc1cc(NCC(C)(O)CN(CC(C)C)CC(C)C)c2ncccc2c1` (stereo not given): the survivor count is, setting by setting: (dose: 100.0 mg/kg/injection, schedule: Q01DX005 (ip), vehicle: saline) 0 of 5; (dose: 200.0 mg/kg/injection, schedule: Q01DX005 (ip), vehicle: saline) 0 of 5.
`O=c1c2ccccc2sc2c([N+](=O)[O-])ccc(NCCCC3CCCN4CCCCC34)c12` (stereo not given): the survivor count (dose: 255.0 mg/kg/injection, schedule: Q01DX005 (ip), vehicle: saline with Tween-80) is 1 of 6.
With `C1COCCOCCOCCO1.[Br][Sn]([Br])([Br])[Br]`, the survivor count under setting [10] is on record as 6 of 6.
Take `N#Cc1ccc(NC(=O)Nc2ccc(Cc3ccc(NC(=O)Nc4ccc(C#N)cc4)cc3)cc2)cc1`: the survivor count is, setting by setting: (dose: 60.0 mg/kg/injection, schedule: Q01DX005 (ip), vehicle: Klucel (hydroxypropylcellulose) (HPC)) 6 of 6; under setting [10], 6 of 6.
With `CC1(C)N=C(N)N=C(N)N1c1ccc(CCC(=O)Nc2ccc(S(=O)(=O)F)cc2)cc1`, for the setting “dose: 2.9 mg/kg/injection, schedule: Q01DX009 (ip), vehicle: saline with Tween-80”, the T/C is 145 % of control. The survivor count reads like this: under setting [8], 6 of 6; (dose: 150.0 mg/kg/injection, schedule: Q01DX009 (ip), vehicle: saline with Tween-80) 6 of 6; (dose: 200.0 mg/kg/injection, schedule: Q01DX009 (ip), vehicle: saline) 6 of 6; (dose: 400.0 mg/kg/injection, schedule: Q01DX009 (ip), vehicle: saline) 5 of 6.
Consider `O=[N+]([O-])c1cccc2c(Nc3ccc(S(=O)(=O)Nc4nccs4)cc3)c3ccccc3nc12`, for which the survivor count (dose: 120.0 mg/kg/injection, schedule: Q01DX005 (ip), vehicle: saline with Tween-80) is on record as 6 of 6 and the survivor count (dose: 240.0 mg/kg/injection, schedule: Q01DX005 (ip), vehicle: saline with Tween-80) was 6 of 6.
Turning to `O=C1CCCC2=C1c1cc3c(cc1CCN2)OCO3`, the survivor count reads like this: (dose: 200.0 mg/kg/injection, schedule: Q04DX002 (ip), vehicle: saline with Tween-80) 0 of 6; (dose: 400.0 mg/kg/injection, schedule: Q04DX002 (ip), vehicle: saline with Tween-80) 0 of 6.
With `CN(C)c1ccc(C(=C(c2ccc(N(C)C)cc2)c2ccc(N(C)C)cc2)c2ccc(N(C)C)cc2)cc1`, the survivor count under setting [2] is 1 of 6, the survivor count under setting [3] is given as 0 of 6 and the survivor count under setting [4] is 0 of 6.
With `CCCCCCCCCCCC(=O)NCC(=O)NC1C(CO)OC(Nc2ncnc3nc[nH]c23)C(O)C1O` (stereo not given), the T/C is, setting by setting: (dose: 0.25 mg/kg/injection, schedule: Q01DX009 (ip), vehicle: other) 141 % of control; (dose: 0.5 mg/kg/injection, schedule: Q01DX009 (ip), vehicle: other) 128 % of control; (dose: 1.0 mg/kg/injection, schedule: Q01DX009 (ip), vehicle: other) 129 and 137 % of control. Besides, the survivor count by setting is: (dose: 4.0 mg/kg/injection, schedule: Q01DX009 (ip), vehicle: other) 6 of 6; (dose: 8.0 mg/kg/injection, schedule: Q01DX009 (ip), vehicle: other) 6 of 6.

Values taken from PubChem BioAssay AID330 (DTP/NCI, 2004).
